These are yes or no findings as the source states them, for the method shown. For part of these data: Binding calls can cover weak binding; strength is not graded here. For part of these data: Binding seen in cells or lysates may run through a third protein. For part of these data: Sequences can lack the tags named with a protein. Each block holds one substance with its values, some of them ahead of it.
Tests used:
GBD-Ckb2 (S. cerevisiae) = biological target: T1, GBD-Ckb2 (S. cerevisiae) (UniProt P38930); assay: two-hybrid; strain Y190; CK2 subunits fused to GBD, IN or IN regions fused to GAD; SC lacking Leu, Trp, His with 0.2 mM 3-Amino-1,2,4-triazole, 2 days at 30 °C; LacZ reporter by X-Gal overlay
T1 sequence: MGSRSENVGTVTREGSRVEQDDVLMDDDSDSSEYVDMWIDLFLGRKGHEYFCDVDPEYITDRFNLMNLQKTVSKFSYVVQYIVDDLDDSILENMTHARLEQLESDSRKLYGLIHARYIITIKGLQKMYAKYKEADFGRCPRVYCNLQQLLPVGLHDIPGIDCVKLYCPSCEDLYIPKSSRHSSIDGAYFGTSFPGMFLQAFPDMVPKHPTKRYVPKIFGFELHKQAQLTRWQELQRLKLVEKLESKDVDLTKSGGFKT

GBD-Cka2 (S. cerevisiae) = biological target: T2, GBD-Cka2 (S. cerevisiae) (UniProt P19454); assay: as above
T2 sequence: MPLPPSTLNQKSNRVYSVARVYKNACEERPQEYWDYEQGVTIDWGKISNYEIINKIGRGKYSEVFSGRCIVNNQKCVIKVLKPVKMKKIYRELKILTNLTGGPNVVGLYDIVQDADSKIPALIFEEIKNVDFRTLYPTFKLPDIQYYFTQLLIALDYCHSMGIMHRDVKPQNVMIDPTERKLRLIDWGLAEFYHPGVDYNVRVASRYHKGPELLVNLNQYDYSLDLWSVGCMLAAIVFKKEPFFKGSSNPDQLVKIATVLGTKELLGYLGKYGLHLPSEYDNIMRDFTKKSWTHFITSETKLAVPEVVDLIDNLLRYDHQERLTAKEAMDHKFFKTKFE

[1] = biological target: T3, TAP-tagged Cka2 (S. cerevisiae) (UniProt P19454); assay: co-IP; whole-cell extracts of exponentially growing yeast; TAP-tagged proteins precipitated on IgG magnetic beads, 2 h at 4 °C, IP buffer 50 mM HEPES-KOH pH 7.5, 300 mM NaCl, 1 mM EDTA, 0.05% NP40; Western blot
T3 sequence: T2 sequence

[2] = biological target: T4, TAP-YKR011C (S. cerevisiae) (UniProt Q02209); assay: as above
T4 sequence: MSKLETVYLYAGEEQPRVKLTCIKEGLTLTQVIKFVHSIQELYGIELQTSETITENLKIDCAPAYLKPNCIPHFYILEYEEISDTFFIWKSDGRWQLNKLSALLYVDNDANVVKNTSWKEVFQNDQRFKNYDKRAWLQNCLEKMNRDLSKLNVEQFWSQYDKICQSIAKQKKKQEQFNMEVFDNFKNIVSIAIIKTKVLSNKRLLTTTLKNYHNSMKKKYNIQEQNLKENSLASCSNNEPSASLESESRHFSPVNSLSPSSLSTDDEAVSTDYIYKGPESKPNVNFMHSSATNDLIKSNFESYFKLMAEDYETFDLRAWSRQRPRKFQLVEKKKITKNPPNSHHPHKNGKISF

[3] = biological target: T5, TAP-tagged Ckb1 (S. cerevisiae) (UniProt P43639); assay: as above
T5 sequence: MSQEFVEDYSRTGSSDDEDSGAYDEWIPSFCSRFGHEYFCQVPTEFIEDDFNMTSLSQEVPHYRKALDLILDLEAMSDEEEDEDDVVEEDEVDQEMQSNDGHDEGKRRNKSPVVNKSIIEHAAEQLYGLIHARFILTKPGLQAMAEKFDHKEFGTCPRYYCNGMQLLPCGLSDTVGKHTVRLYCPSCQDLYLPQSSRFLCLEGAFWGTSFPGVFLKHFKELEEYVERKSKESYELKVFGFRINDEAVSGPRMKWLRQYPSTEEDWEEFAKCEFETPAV

[4] = biological target: T6, TAP-tagged Ckb2 (S. cerevisiae) (UniProt P38930); assay: as above
T6 sequence: T1 sequence

Substance: Full-length Ty1 IN with a C-tag at its C-terminus, fused to the GAL4 activating domain (S. cerevisiae) (enzyme)
binding (GBD-Cka2 (S. cerevisiae)): no binding
binding (GBD-Ckb2 (S. cerevisiae)): binds

Substance: GAD-IN(1-578) (S. cerevisiae) (domain or fragment)
binding (GBD-Ckb2 (S. cerevisiae)): binds

Substance: Ty1 integrase with a C-terminal histidine-biotin-histidine (HBH) tag (S. cerevisiae) (enzyme)
binding [1]: binds
binding [3]: binds
binding [4]: binds

Now from value to substance:

binding (GBD-Ckb2 (S. cerevisiae)): no binding
Substance: C-terminal fragment of IN (amino acids 578-635) fused to GAD (S. cerevisiae) (domain or fragment)

binding (GBD-Ckb2 (S. cerevisiae)): no binding
Substance: Full-length Ty1 IN without C-tag, fused to the GAL4 activating domain (S. cerevisiae) (enzyme)

binding (GBD-Ckb2 (S. cerevisiae)): binds
Substance: GAD-IN(386-511) (S. cerevisiae) (domain or fragment)

binding [1]: binds
binding [2]: no binding
binding [3]: binds
Substance: Ty1 integrase expressed from a functional Ty1 element (processed from Gag-Pol) (S. cerevisiae) (enzyme)

— PMC9673352
